Earlier results on 1 compound are cited in PMC13335744, “Functional Analysis of Ligand‐Gated Chloride Channels in a Cnidarian Sheds Light on the Evolution of Inhibitory Signaling” (Advanced Science, 2026).

This data set relates to ELIC. Conditions: read-out: EC50, activation; low affinity; cited from earlier work.

Consider `NCCCC(=O)O` [GABA, γ‐aminobutyric acid], for which the half-maximal effective concentration (EC50) (in general, the concentration that produces a half-maximal response) is 21 mM.
